Reference: US20060183773A1, “Uses of methylphenidate derivatives” (priority 2005, published 2006)
At least one compound was matched to its structure with a doubt left.

What was measured:
Type in all cases: cell-based, human
IL-8 [1] = assay: IL-8 release by PHA-stimulated PBL, ELISA; conditions: PBL donor GR-192; 2 μg/ml PHA, 96 h; Cpd II 15 μg/ml, Dex 10 μM; FIG. 8
Protocol: Whole blood was drawn from GR-192, a normal human volunteer, and processed as described in Example 1 to give heat-inactivated serum and PBL. […] After this incubation, PHA was added to give a final concentration of 2 μg/ml, and the cells were incubated for an additional 96 hours at 37° C., 5% CO2. All cultures were performed in triplicate. Cells were then removed by centrifugation at 1000 rpm for 10 minutes, and the culture medium collected.
Release of IL-8 into the culture medium was measured by ELISA. To perform the ELISA, matched pairs of antibodies against human IL-8 were purchased from Pierce Biotechnology and Biosource, respectively. ELISA strip well plates were coated with 2 μg/ml of antibody to IL-8 (in phosphate-buffered saline (PBS)) overnight at room temperature. The plates were then blocked using a 4% BSA solution in PBS for one hour, followed by the addition of 50 μl of experimental culture medium per well in duplicate. The plates were incubated at room temperature for one hour and then washed using 50 mM Tris pH 8.0 with 0.1% Tween 20. Then, solutions of 100 ng/ml biotinylated second antibody to IL-8 were made in blocking buffer, and 100 μl were added per well. The plates were incubated for 1 hour and washed again. […] OD was determined using microplate reader with a 450 nm filter.

[2] = test system: peripheral blood lymphocytes (PBL); assay: PBL proliferation, Promega cell titer assay; conditions: Dex 10 μM
Protocol: Whole blood was drawn from GR283, a human volunteer with known allergies, into a glass vacutainer tube containing no anticoagulant. This blood was allowed to clot, and the serum was removed by centrifugation and then heat inactivated by placing it in a water bath at 56° C. for 30 minutes. Whole blood from GR283 was also drawn into a glass vacutainer tube containing heparin and used for peripheral blood lymphocytes (PBL) isolation as follows. Whole blood was layered over room temperature Histopaque 1077 solution and centrifuged at 2000 rpm for 15 minutes at room temperature. Cells at the plasma-Histopaque interface were then removed and washed with culture medium (IMDM medium with 10% heat-inactivated GR283 serum plus 1% penicillin/streptomycin) at 37° C.
Then, GR283's PBL in culture medium were added to the wells to give a final concentration of 150,000 cells per well, and the plates were incubated at 37° C., 5% CO2 for 24 hours. […]
Cell proliferation was assayed by adding 20 μl of Promega cell titer solution to each well and incubating the plate for an additional 4 hours. […] After the 4-hour incubation, the optical density (OD) at 530 nm of each well was measured. […]

T cells = assay: CD69+TCR staining of PBL, flow cytometry (T-cell activation); conditions: PHA 5 μg/ml plus 10 μM dexamethasone
Protocol: After this incubation, PHA was added to give a final concentration of 5 μg/ml, and the cells were incubated for an additional 72 hours at 37° C., 5% CO2. All cultures were performed in triplicate. Cells were then removed by centrifugation at 1000 rpm for 10 minutes.
The cells were further analyzed by flow cytometry. Annexin was used to determine populations of dead or dying cells. Anti-CD69 antibody was used to establish the level of cellular activation. Antibody to T-cell receptor αβ (TCR) was also used. Recombinant Annexin 5 (PE and FITC conjugates) and the antibodies were all purchase from Caltag (Burlingham, Calif.) and used following the manufacturer's recommendations.

IL-8 [3] = assay: IL-8 release by TNFα-stimulated HUVECs, ELISA; conditions: Cpd II 1-30 μg/ml, MP 15 μg/ml, Dex and LY 294002 10 μM
Protocol: Passage 4 HUVECs, human source lot number 8710 (obtained from ATCC), were put into the wells of a 24-well tissue culture plate at 5,000 cells/well in EGM-2 medium (obtained from Cambrex) and cultured for 72 hours at 37° C. and 5% CO2. […] After incubation for 1 hour at 37° C. and 5% CO2, TNFα (obtained from Pierce) was added to give a final concentration of 10 ng/ml, and the cells were incubated for an additional 18 hours at 37° C. and 5% CO2. After this incubation, the supernatants were collected, and the amount of IL-8 in the supernatants determined by ELISA as described in Example 4.

SMILES	IL-8 release induced by PHA (IL-8 [1])	proliferation of PBL (OD at 530 nm) ([2]; donor GR191, unstimulated and PHA 2, 5 μg/ml, Cpd II 5, 15, 25, 50 μg/ml, MP 50 μg/ml, FIGS. 5A-B)	proliferation of PBL (OD at 530 nm) ([2]; donor GR467, unstimulated and 2 μg/ml PHA, Cpd II 5, 15, 25 μg/ml, MP 15 μg/ml, FIG. 2)	reduction of CD69+TCR staining of PHA-stimulated cells, comparison (T cells)	IL-8 release stimulated by TNFα (in words) (IL-8 [3])
C[C@@H]1C[C@H]2[C@@H]3CCC4=CC(=O)C=C[C@]4(C)[C@@]3(F)[C@@H](O)C[C@]2(C)[C@@]1(O)C(=O)CO [dexamethasone, reference compound]	significantly inhibited IL-8 release induced by PHA	significantly inhibited the proliferation of PBL, both unstimulated and stimulated with PHA	significantly inhibited the proliferation of PBL, both unstimulated and stimulated with PHA	less effective than the compound of formula II	
O=c1cc(N2CCOCC2)oc2c(-c3ccccc3)cccc12 [LY 294002, reference compound]					significantly decreased IL-8 release
